Assay: in vitro
Details: dog, MDCK-MDR1, pH 7.4
Method: The membrane permeability of the molecules of the present invention was evaluated to predict their permeability to the brain.
The specific procedure was: 1. MDCK-MDR1 cells were pre-cultured at a density of 1.56*10^6 cells/mL in a 96-well plate at 37°C for 7 days. 2. The MDCKII-MDR1 plate was taken out of the incubator, rinsed twice with pre-warmed HBSS (10 mM HEPES, pH 7.4), and then incubated at 37°C for 30 minutes. 3. The stock solution of the compound to be tested was diluted with DMSO to obtain a 0.2 mM solution, and then diluted with HBSS (10 mM HEPES, pH 7.4) to obtain a 1 µM working solution. A blank control group was also diluted with DMSO to obtain a 0.2 mM solution, and then diluted with HBSS (10 mM HEPES, pH 7.4) to obtain a 1 µM working solution. The final concentration of DMSO in the culture system was 0.5%. 4. The transport rate of the drug in the apical to basolateral direction was determined: 125 µL of the 1 µM test compound solution was added to a Transwell insert (top compartment), before immediately transferring a 50 µL sample (D0 sample) from the top comparment to a new 96-well plate. The receiving plate wells (basolateral compartment) were filled with 235 µL HBSS (10 mM HEPES, pH 7.4) and incubated at 37°C for 2 hours. 5. […]

Question: Which results are given for `Cc1cc2cc(C(=O)N(Cc3ccc(C(F)(F)F)cn3)[C@H](C)c3ncccn3)ccc2nc1N` [AM9747, reference compound]?
Answer: Papp A→B: 12.8 ×10⁻⁶ cm/s; Papp B→A: 28.3 ×10⁻⁶ cm/s
